Some of the results follow. Further columns of the screen follow, without active or inactive calls. Compounds called inactive in the main read-out are mostly missing here. Potencies come from curve fits of mixed quality, noted in brackets.
Assay: qHTS Assay to Find Inhibitors of Chronic Active B-Cell Receptor Signaling
Conditions: ABC-DLBCL IkBa-CBG/CBR reporter, luminescence ratio (green luciferase fused to IkBa over red control in TMD8 lymphoma cells), 4 h
In short: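 Concentration-response series (up to 46 uM) were applied to TMD8 dual-reporter cells for 4 h at 37C with doxycycline. Green/red ratio, after filter-overlap correction, defined %Activity; red signal alone was normalised to basal cells and zero luminescence.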

[1] = measured here: CBR red luminescence, cell number
[2] = measured here: IkBa-CBG green luminescence

| SMILES | AC50 [1] | AC50 [2] |
| --- | --- | --- |
| CCOc1ccc(S(=O)(=O)N2CCCC(C(=O)NC3CC3)C2)cc1Cl (configuration not stated) | 0.206 µM [falling, full curve] | – |
| CCCc1ccc2oc(C(=O)N(C)Cc3nccs3)c(C)c2c1 | 1.78 µM [rising, full curve] | – |
| Cc1ccc(S(=O)(=O)CNC(=S)c2cccc(Cl)c2)cc1 | – | 29.1 µM [falling, single point] |
| O=C(C(=O)N1CCN(c2ccccc2)CC1)c1c[nH]c2ccccc12 | 12.6 µM [falling, partial curve] | – |
| COC(=O)c1cc(=O)n(-c2ccccc2)c(=Nc2ccccc2)s1 | 14.6 µM [falling, partial curve, poor fit] | – |
| COc1ccc(S(=O)(=O)N(C)CC(=O)N2CCCC2)cc1Cl | 35.5 µM [rising, single point] | – |
| CC(C)Cn1c(-c2ccccc2)nc(=S)c2c1CCCC2 | 3.66 µM [falling, single point] | 6.51 µM [rising, partial curve, poor fit] |
| CCc1cccc(C)c1NC(=O)CCOc1ccccc1 | 20 µM [rising, partial curve, poor fit] | – |
| Cc1cccc(Nc2nnc(SCC(=O)NC3CCCc4ccccc43)s2)c1C (configuration not stated) | 29.1 µM [falling, single point] | – |
| Cc1ccc([N+](=O)[O-])c(OCCN2CCC(Cc3ccccc3)CC2)c1 | 11.2 µM [falling, partial curve] | – |
| COC(=O)[C@@H]1Cc2c([nH]c3ccccc23)C(C)N1C(=O)c1ccccc1 (some centres not stated) | 35.5 µM [falling, single point] | – |
| Cc1cccc(C)c1OCC(O)CNS(=O)(=O)c1ccccc1C(=O)N1CCOCC1 (configuration not stated) | – | 0.461 µM [falling, full curve] |
| CC(C)C[C@H]1C(=O)N2CCC[C@H]2[C@]2(O)O[C@](NC(=O)[C@@H]3C=C4c5cccc6[nH]c(Br)c(c56)CC4N(C)C3)(C(C)C)C(=O)N12 (some centres not stated) | 8.91 µM [falling, partial curve] | – |
| Cc1ccc(-c2nn(CC(=O)NN3CCOCC3)c(=O)c3ccccc23)cc1 | 1.12 µM [falling, partial curve, poor fit] | – |
| CCOC(=O)C1CCN(C(=O)COc2cccc(C)c2)CC1 | 20.6 µM [falling, partial curve] | – |
| Cc1ccc(-n2nc(C)c3c(C)c(CCC(=O)NCc4ccccc4)c(C)nc32)cc1 | 23.1 µM [falling, single point] | – |
| CCOC(=O)c1c(N)sc2c(NC(C)=O)cccc12 | 0.501 µM [falling, full curve, poor fit] | – |
| CN(C)CCNC(=O)C1CCN(Cc2cc3ccccc3n2Cc2ccccc2)CC1 | 20 µM [falling, partial curve] | – |
| COc1cccc(Nc2nc3ccccc3n3cnnc23)c1 | 35.5 µM [falling, single point] | – |
| O=C1C=C(NCCN2CCOCC2)C(=O)c2cnccc21 | 16.4 µM [falling, partial curve] | – |

| SMILES | AC50 [1] | AC50 [2] |
| --- | --- | --- |
| COc1cc([N+](=O)[O-])c(OC)cc1SCc1n[nH]c(=S)n1-c1ccc(F)cc1 | 2.51 µM [rising, full curve, poor fit] | – |
| C=COCCCNc1ncnc2sc(-c3ccccc3)cc12 | 6.31 µM [falling, full curve, poor fit] | – |
| Cc1cc(C(=O)COC(=O)c2ccccc2NCCO)c(C)n1CC1CCCO1 (configuration not stated) | 8.91 µM [falling, partial curve] | – |
| Cc1ccc2oc(Nc3nc(C)c(C)c(C)n3)nc2c1 | 0.447 µM [rising, full curve, poor fit] | – |
| COc1ccc(-n2ncc3c(NC4CCCC4)ncnc32)cc1 | 11.2 µM [falling, single point] | – |
| CCC(C)c1ccc(OCC(=O)NNC(=O)C2CCCCC2)cc1 (configuration not stated) | 0.562 µM [falling, partial curve, poor fit] | – |
| CCOC(=O)c1c(NC(=O)CSc2nnc(C)c(=O)[nH]2)sc2c1CCCC2 | 5.17 µM [falling, full curve] | 6.51 µM [rising, partial curve, poor fit] |
| Cc1ccn2cc(C(=O)N3CCCC(Nc4ccc(F)cc4)C3)nc2c1 (configuration not stated) | 7.94 µM [rising, partial curve] | – |
| CC(C)(C)NC(=O)NC(=O)CSc1cccc(C(F)(F)F)c1 | 0.112 µM [falling, full curve, poor fit] | – |
| C=CCc1cccc(/C=N/NC(=O)C(=O)Nc2ccc(C)cc2)c1O | 22.4 µM [falling, single point] | – |
| CCn1cc(CN2CCCC(C(=O)Nc3cccc(-c4cc5ccccc5[nH]4)c3)C2)cn1 (configuration not stated) | 22.4 µM [falling, single point] | – |
| Cc1cc(C)cc(-n2c(C)cc(C(=S)N3CCOCC3)c2C)c1 | – | 29.1 µM [rising, partial curve, poor fit] |
| O=S(=O)(NCC(c1cccnc1)N1CCOCC1)c1ccccc1 (configuration not stated) | 6.31 µM [rising, full curve, poor fit] | – |
| Nc1ccc(O)c2c(=O)cc(-c3ccccc3Cl)oc12 | 2.59 µM [rising, partial curve] | – |
| COCc1c(C(=O)N/N=C/c2c[nH]c3ccccc23)nnn1-c1nonc1N | 14.1 µM [falling, partial curve, poor fit] | – |
| CCOc1cc([N+](=O)[O-])cc(/C=C2/NC(=O)N(Cc3ccccc3F)C2=O)c1O | 0.0891 µM [rising, full curve, poor fit] | – |
| CC(C)(C)OC(=O)N[C@@H](/C=C/c1ccccc1)C(=O)OC(C)(C)C | 29.1 µM [rising, single point] | – |
| Cc1ccc(C)c(NC(=S)NCc2ccc3[nH]c4c(c3c2)CCCC4)c1 | 29.1 µM [rising, single point] | 20.6 µM [falling, single point] |
| COc1ccc(N(CC(=O)Nc2ccc3c(c2)OCCO3)S(=O)(=O)c2cccnc2)cc1 | 20.6 µM [rising, partial curve, poor fit] | – |

2 neighbouring entries already listed, quoted:

| SMILES | AC50 [1] | AC50 [2] |
| --- | --- | --- |
| COCc1c(C(=O)N/N=C/c2c[nH]c3ccccc23)nnn1-c1nonc1N | 14.1 µM [falling, partial curve, poor fit] | – |
| CCOc1cc([N+](=O)[O-])cc(/C=C2/NC(=O)N(Cc3ccccc3F)C2=O)c1O | 0.0891 µM [rising, full curve, poor fit] | – |

Reference: PubChem BioAssay AID493014 (National Center for Advancing Translational Sciences (NCATS), 2011)
